The values below come from publication PMC12485048.

No constants are given. Whether binding was seen depends on the method and setting. In cells and extracts the contact can be indirect. Binding calls can cover weak binding; strength is not graded here.

This experiment has as its target T1, SH3RF2 (mouse (endogenous in striatum)) (UniProt Q8BZT2).
T1 sequence: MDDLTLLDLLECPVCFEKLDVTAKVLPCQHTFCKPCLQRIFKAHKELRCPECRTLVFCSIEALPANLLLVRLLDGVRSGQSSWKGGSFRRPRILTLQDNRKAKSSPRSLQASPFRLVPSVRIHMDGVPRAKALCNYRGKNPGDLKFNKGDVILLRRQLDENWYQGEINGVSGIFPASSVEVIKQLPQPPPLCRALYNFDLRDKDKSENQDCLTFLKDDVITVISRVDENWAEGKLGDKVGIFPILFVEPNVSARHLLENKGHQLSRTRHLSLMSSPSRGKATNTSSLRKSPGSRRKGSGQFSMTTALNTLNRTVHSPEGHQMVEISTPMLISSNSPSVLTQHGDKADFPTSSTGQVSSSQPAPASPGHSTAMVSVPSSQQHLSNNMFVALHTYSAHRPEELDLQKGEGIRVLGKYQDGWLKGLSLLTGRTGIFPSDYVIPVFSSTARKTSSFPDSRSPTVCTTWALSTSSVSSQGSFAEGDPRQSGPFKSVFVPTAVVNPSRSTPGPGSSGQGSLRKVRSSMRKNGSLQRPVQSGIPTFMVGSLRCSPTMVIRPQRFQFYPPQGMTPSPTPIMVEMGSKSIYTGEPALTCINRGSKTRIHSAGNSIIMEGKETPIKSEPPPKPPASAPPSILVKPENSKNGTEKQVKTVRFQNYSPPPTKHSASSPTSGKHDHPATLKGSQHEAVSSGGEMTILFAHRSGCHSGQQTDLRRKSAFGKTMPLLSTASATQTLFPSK
Kind of experiment: co-IP; endogenous proteins in mouse striatum lysate (20 mM Tris-HCl pH 7.4, 50 mM NaCl, 0.5% NP-40, 10 mM HEPES, 0.5 mM EDTA); 2 μg primary antibody on Protein A/G or Protein G magnetic beads, lysate at 4 °C overnight; western blot; for CaMKII–PPP1CC, WT and Sh3rf2 KO striatum compared. Background: In western blotting, separated proteins are transferred to a membrane and probed.

In the case of “Ca2+/calmodulin-dependent protein kinase II (CaMKII) (mouse (endogenous in striatum)) (enzyme)”, the binding result is “binds”.
